Data: the supplement of paper PMC12823440, “Inhibitors supercharge kinase turnover through native proteolytic circuits” (Nature, 2025)
Counter-ions that a name gives are not always drawn. This is one part of the list. Hit calls seldom repeat between salt and free forms of one compound.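 Kinases, fused to nanoluciferase, were expressed in K562 cells; luminescence was measured every 4 h from 2 to 18 h as percent of control (DMSO = 100%, positive control = 0%). A time point is decreased if signal falls significantly (2 sigma). Hits were called by the authors by a rule that is not shown; the count of time points alone does not decide it.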

Sequences of proteins named here, by UniProt entry; tags and fusion partners are left off. A change or cut given only in a name is not applied to a line headed by its entry.
UniProt P28482, whole entry: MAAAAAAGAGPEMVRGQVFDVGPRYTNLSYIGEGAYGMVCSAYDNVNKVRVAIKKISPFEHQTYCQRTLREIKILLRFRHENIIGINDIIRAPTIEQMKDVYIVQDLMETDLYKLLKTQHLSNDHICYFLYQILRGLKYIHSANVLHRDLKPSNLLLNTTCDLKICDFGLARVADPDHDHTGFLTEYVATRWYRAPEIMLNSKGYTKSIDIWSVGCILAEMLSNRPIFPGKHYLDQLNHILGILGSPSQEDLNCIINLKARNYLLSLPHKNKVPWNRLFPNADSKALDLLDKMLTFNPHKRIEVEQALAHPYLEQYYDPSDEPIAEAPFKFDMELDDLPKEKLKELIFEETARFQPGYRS
UniProt P31152, whole entry: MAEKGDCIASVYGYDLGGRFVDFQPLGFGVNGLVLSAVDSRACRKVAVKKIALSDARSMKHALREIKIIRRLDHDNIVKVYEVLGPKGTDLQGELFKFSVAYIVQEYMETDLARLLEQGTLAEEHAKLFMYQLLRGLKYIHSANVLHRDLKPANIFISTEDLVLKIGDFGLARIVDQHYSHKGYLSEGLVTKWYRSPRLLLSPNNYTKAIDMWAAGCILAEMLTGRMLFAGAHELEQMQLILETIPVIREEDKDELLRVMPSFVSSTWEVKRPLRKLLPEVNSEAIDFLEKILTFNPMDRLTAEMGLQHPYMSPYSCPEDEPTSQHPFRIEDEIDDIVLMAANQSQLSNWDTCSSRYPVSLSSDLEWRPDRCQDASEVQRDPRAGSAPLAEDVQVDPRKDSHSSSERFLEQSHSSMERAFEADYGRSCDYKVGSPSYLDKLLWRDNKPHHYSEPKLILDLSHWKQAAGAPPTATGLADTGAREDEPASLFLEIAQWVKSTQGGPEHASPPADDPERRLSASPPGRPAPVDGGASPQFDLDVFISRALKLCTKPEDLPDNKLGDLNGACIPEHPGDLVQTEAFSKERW
UniProt Q9BUB5: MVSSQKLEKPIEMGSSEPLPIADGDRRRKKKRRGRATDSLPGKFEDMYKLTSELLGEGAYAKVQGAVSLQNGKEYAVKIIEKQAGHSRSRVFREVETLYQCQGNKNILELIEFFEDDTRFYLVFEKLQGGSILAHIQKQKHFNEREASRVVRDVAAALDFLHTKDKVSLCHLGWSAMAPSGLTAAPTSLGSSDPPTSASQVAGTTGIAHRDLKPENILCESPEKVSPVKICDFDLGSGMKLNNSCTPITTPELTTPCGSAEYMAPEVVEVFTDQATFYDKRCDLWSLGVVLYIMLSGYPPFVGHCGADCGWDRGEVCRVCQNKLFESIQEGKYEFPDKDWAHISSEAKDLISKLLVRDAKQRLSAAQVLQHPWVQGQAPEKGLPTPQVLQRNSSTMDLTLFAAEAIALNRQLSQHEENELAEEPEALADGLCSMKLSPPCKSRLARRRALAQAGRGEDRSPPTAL
UniProt O96013: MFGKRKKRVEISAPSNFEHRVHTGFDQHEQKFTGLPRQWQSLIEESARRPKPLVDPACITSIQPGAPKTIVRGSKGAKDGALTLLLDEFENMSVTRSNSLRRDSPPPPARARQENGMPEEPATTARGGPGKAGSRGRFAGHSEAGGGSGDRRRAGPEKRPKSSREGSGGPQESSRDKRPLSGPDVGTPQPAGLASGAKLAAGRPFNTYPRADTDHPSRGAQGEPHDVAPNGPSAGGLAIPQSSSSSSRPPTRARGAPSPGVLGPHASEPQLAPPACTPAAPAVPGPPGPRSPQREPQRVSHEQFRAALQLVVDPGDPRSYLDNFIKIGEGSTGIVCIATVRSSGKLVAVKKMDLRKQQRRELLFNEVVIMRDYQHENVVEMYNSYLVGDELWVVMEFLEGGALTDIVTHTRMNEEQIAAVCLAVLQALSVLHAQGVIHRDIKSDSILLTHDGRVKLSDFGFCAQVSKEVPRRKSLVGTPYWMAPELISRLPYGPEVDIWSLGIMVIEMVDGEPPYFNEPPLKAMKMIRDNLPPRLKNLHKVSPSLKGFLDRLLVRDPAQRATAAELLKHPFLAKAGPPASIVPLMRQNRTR
UniProt Q96KB5: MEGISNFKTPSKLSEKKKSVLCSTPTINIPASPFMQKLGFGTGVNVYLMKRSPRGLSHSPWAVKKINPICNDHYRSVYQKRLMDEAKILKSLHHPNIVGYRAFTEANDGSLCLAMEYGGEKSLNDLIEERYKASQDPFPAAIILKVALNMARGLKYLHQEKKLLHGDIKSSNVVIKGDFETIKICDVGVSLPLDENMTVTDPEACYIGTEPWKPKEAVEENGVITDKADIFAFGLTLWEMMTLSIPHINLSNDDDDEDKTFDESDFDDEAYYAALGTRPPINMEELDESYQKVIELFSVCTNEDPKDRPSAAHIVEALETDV
UniProt P42356, whole entry, looked up: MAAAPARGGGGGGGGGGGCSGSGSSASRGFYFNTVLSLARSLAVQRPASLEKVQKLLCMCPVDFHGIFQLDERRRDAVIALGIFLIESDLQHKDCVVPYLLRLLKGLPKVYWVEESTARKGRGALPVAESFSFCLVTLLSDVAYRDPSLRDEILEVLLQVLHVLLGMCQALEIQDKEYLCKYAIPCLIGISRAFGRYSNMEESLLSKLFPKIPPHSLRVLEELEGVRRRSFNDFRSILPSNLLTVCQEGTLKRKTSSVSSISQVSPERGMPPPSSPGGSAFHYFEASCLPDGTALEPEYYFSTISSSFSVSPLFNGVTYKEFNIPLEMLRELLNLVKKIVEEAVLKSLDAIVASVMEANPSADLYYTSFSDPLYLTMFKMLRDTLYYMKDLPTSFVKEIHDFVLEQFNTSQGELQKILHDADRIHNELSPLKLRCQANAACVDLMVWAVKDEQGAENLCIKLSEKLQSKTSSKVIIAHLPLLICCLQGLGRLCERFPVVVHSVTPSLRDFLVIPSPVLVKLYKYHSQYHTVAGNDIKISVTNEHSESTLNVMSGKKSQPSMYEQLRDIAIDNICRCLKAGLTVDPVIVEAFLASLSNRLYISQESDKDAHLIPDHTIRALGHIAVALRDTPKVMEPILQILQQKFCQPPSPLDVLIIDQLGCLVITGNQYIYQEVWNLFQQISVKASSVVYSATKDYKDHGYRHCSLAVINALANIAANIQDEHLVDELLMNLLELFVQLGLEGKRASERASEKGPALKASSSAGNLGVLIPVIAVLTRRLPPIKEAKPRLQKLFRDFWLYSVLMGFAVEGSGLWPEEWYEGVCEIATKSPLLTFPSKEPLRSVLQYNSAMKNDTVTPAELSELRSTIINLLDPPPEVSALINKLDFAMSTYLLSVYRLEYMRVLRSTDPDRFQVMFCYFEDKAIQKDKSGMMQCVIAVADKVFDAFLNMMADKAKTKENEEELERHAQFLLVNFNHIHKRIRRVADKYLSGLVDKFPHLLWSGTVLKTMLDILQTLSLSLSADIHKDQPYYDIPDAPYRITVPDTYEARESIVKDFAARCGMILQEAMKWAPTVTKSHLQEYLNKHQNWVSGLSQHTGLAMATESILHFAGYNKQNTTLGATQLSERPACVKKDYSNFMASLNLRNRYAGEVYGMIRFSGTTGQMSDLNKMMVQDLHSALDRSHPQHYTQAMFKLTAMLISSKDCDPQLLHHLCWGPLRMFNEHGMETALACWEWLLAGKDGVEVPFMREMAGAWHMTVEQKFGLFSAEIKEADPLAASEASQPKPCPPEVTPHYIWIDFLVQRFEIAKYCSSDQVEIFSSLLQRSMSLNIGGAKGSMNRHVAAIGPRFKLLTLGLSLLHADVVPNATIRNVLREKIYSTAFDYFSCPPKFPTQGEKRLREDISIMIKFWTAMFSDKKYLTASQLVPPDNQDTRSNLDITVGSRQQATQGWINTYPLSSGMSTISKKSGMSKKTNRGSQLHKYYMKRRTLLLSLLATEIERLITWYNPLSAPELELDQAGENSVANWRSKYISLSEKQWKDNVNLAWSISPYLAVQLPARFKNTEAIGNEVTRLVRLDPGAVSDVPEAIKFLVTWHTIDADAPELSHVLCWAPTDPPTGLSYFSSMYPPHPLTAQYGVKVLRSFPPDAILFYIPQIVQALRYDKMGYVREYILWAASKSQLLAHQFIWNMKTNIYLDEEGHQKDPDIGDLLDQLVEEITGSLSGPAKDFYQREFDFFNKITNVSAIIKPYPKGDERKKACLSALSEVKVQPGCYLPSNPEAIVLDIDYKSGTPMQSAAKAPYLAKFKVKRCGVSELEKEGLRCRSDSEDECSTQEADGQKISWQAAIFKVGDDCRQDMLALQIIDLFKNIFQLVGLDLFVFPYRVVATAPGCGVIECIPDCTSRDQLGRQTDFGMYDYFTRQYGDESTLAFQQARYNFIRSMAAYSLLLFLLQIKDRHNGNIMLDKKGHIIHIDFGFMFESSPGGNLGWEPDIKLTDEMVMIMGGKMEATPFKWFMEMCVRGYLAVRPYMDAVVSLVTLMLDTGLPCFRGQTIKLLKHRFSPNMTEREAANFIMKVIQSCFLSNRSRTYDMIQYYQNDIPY
UniProt Q05397, whole entry, looked up: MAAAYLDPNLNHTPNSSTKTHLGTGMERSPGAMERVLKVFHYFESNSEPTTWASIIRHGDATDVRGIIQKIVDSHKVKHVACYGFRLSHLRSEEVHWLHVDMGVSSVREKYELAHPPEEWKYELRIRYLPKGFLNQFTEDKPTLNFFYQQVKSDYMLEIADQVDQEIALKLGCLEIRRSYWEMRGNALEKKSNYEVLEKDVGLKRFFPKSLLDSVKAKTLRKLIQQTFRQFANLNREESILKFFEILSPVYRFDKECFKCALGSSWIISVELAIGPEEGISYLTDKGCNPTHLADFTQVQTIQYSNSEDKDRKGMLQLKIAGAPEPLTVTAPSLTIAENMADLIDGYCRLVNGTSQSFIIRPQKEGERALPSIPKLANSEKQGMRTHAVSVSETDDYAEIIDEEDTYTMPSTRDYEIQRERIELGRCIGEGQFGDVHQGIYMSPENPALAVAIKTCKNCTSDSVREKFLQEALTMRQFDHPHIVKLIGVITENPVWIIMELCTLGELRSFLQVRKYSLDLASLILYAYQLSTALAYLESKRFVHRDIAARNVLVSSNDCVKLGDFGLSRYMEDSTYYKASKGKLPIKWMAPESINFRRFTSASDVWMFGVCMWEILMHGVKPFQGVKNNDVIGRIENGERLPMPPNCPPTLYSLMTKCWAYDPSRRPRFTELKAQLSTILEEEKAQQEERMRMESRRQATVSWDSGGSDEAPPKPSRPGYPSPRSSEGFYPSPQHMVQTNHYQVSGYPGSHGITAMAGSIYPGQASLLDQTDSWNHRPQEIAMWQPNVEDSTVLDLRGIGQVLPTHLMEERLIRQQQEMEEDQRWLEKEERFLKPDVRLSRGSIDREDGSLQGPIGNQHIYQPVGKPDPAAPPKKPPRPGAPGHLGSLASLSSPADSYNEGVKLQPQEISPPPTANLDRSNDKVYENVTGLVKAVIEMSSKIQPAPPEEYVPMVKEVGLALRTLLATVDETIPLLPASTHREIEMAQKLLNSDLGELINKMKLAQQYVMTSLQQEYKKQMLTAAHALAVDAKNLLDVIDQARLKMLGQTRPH
UniProt Q14289, whole entry, looked up: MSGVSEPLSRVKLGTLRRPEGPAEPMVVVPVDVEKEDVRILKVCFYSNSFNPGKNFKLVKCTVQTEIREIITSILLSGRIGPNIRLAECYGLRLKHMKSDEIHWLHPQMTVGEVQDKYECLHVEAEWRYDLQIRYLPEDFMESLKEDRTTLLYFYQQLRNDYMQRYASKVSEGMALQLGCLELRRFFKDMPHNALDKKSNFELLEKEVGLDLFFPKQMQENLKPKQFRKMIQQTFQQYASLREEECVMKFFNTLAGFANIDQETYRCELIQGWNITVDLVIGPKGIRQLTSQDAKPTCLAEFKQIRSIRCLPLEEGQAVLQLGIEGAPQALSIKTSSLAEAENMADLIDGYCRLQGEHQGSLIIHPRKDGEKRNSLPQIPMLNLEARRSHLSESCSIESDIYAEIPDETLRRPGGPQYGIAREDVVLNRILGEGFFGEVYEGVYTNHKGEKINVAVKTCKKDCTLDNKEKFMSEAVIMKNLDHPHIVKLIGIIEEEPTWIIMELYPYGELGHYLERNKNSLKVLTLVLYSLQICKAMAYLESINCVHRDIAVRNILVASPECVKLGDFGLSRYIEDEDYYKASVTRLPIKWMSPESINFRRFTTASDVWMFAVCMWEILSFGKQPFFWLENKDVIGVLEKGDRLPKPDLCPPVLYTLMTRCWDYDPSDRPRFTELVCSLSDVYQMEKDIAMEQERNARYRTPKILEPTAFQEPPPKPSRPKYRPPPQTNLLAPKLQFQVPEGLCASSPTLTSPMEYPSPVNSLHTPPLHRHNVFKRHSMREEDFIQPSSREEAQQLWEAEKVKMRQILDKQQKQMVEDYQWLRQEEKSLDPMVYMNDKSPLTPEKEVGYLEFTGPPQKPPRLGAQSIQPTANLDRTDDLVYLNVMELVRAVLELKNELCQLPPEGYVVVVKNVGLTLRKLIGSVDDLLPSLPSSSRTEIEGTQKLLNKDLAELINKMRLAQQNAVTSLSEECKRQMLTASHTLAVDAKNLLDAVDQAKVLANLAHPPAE

Columns and labels:
Test in all cases: kinase-Nluc reporter destabilization hit call (1 = scored as downregulated) (binary); higher = compound decreases kinase abundance
Settings in all cases: K562, 2-18 h
MAPK1 = MAPK1 (UniProt P28482)
MAPK4 = MAPK4 (UniProt P31152)
MAPKAPK2 = MAPKAPK2 (UniProt P49137)
MKNK1 = MKNK1 (UniProt Q9BUB5)
NTRK2 = NTRK2 (UniProt Q16620)
NTRK3 = NTRK3 (UniProt Q16288)
PAK4 = PAK4 (UniProt O96013)
PBK = PBK (UniProt Q96KB5)
PDGFRB = PDGFRB (UniProt P09619)
PDK1 = PDK1 (UniProt Q15118)
PDPK1 = PDPK1 (UniProt O15530)
PIK4CA = PIK4CA (UniProt P42356)
PIK4CB = PIK4CB (UniProt Q9UBF8)
PLK1 = PLK1 (UniProt P53350)
PRKAA1 = PRKAA1 (UniProt Q13131)
PRKCA = PRKCA (UniProt P17252)
PTK2 = PTK2 (UniProt Q05397)
PTK2B = PTK2B (UniProt Q14289)
RAF1 = RAF1 (UniProt P04049)
[1] = biological target: RAF1_S257L (clone: RAF1_mut) (UniProt P04049)

Measured: kinase-Nluc reporter destabilization hit call

C[C@H](Nc1cc(-c2cnn(C)c2)cc(Nc2cnccn2)n1)c1ccc(F)cc1 [Ilginatinib]
inactive: MAPK1; 2.5 µM 0 | MAPK4; 2.5 µM 0 | MAPKAPK2; 2.5 µM 0 | MKNK1; 2.5 µM 0 | NTRK2; 2.5 µM 0 | NTRK3; 2.5 µM 0 | PAK4; 2.5 µM 0 | PBK; 2.5 µM 0 | PDGFRB; 2.5 µM 0 | PDK1; 2.5 µM 0 | PDPK1; 2.5 µM 0 | PIK4CA; 2.5 µM 0 | PIK4CB; 2.5 µM 0 | PLK1; 2.5 µM 0 | PRKAA1; 2.5 µM 0 | PRKCA; 2.5 µM 0 | PTK2; 2.5 µM 0 | PTK2B; 2.5 µM 0 | RAF1; 2.5 µM 0 | [1]; 2.5 µM 0

O=C(Nc1cnn2ccc(N3CCC[C@@H]3c3cc(F)ccc3F)nc12)N1CC[C@H](O)C1 [Larotrectinib sulfate]
inactive: MAPK1; 10 µM 0 | MAPK4; 10 µM 0 | MAPKAPK2; 10 µM 0 | MKNK1; 10 µM 0 | NTRK2; 10 µM 0 | NTRK3; 10 µM 0 | PAK4; 10 µM 0 | PBK; 10 µM 0 | PDGFRB; 10 µM 0 | PDK1; 10 µM 0 | PDPK1; 10 µM 0 | PIK4CA; 10 µM 0 | PIK4CB; 10 µM 0 | PLK1; 10 µM 0 | PRKAA1; 10 µM 0 | PRKCA; 10 µM 0 | PTK2; 10 µM 0 | PTK2B; 10 µM 0 | RAF1; 10 µM 0 | [1]; 10 µM 0

COc1cc2c(Oc3ccc4[nH]c(C)cc4c3F)ncnc2cc1OCCCN1CCCC1 [Cediranib]
inactive: MAPK1; 2.5 µM 0 | MAPK4; 2.5 µM 0 | MAPKAPK2; 2.5 µM 0 | MKNK1; 2.5 µM 0 | NTRK2; 2.5 µM 0 | NTRK3; 2.5 µM 0 | PAK4; 2.5 µM 0 | PBK; 2.5 µM 0 | PDGFRB; 2.5 µM 0 | PDK1; 2.5 µM 0 | PDPK1; 2.5 µM 0 | PIK4CA; 2.5 µM 0 | PIK4CB; 2.5 µM 0 | PLK1; 2.5 µM 0 | PRKAA1; 2.5 µM 0 | PRKCA; 2.5 µM 0 | PTK2; 2.5 µM 0 | PTK2B; 2.5 µM 0 | RAF1; 2.5 µM 0 | [1]; 2.5 µM 0

CNc1ncc2cc(-c3ccc(-c4cccc(C)n4)cc3Cl)c(=O)n(C[C@H]3OC[C@H](N)CO3)c2n1 [G-5555 (hydrochloride)]
inactive: MAPK1; 10 µM 0 | MAPK4; 10 µM 0 | MAPKAPK2; 10 µM 0 | MKNK1; 10 µM 0 | NTRK2; 10 µM 0 | NTRK3; 10 µM 0 | PAK4; 10 µM 0 | PBK; 10 µM 0 | PDGFRB; 10 µM 0 | PDK1; 10 µM 0 | PDPK1; 10 µM 0 | PIK4CA; 10 µM 0 | PIK4CB; 10 µM 0 | PLK1; 10 µM 0 | PRKAA1; 10 µM 0 | PRKCA; 10 µM 0 | PTK2; 10 µM 0 | PTK2B; 10 µM 0 | RAF1; 10 µM 0 | [1]; 10 µM 0

COc1ccc2c(c1)C(c1ccc(F)cc1)=C(CN1CCCC1)CO2 [AX-024 hydrochloride]
inactive: MAPK1; 10 µM 0 | MAPK4; 10 µM 0 | MAPKAPK2; 10 µM 0 | MKNK1; 10 µM 0 | NTRK2; 10 µM 0 | NTRK3; 10 µM 0 | PAK4; 10 µM 0 | PBK; 10 µM 0 | PDGFRB; 10 µM 0 | PDK1; 10 µM 0 | PDPK1; 10 µM 0 | PIK4CA; 10 µM 0 | PIK4CB; 10 µM 0 | PLK1; 10 µM 0 | PRKAA1; 10 µM 0 | PRKCA; 10 µM 0 | PTK2; 10 µM 0 | PTK2B; 10 µM 0 | RAF1; 10 µM 0 | [1]; 10 µM 0

Cc1cc(Nc2ncc(Cl)c(Nc3ccccc3S(=O)(=O)C(C)C)n2)c(OC(C)C)cc1C1CCNCC1 [Ceritinib dihydrochloride]
inactive: MAPK1; 2.5 µM 0 | MAPK4; 2.5 µM 0 | MAPKAPK2; 2.5 µM 0 | MKNK1; 2.5 µM 0 | NTRK2; 2.5 µM 0 | NTRK3; 2.5 µM 0 | PAK4; 2.5 µM 0 | PBK; 2.5 µM 0 | PDGFRB; 2.5 µM 0 | PDK1; 2.5 µM 0 | PDPK1; 2.5 µM 0 | PIK4CA; 2.5 µM 0 | PIK4CB; 2.5 µM 0 | PLK1; 2.5 µM 0 | PRKAA1; 2.5 µM 0 | PRKCA; 2.5 µM 0 | PTK2; 2.5 µM 0 | PTK2B; 2.5 µM 0 | RAF1; 2.5 µM 0 | [1]; 2.5 µM 0

Three entries already listed, sorted by SMILES length, smallest number first.
COc1ccc2c(c1)C(c1ccc(F)cc1)=C(CN1CCCC1)CO2 [AX-024 hydrochloride]
inactive: MAPK1; 10 µM 0 | MAPK4; 10 µM 0 | MAPKAPK2; 10 µM 0 | MKNK1; 10 µM 0 | NTRK2; 10 µM 0 | NTRK3; 10 µM 0 | PAK4; 10 µM 0 | PBK; 10 µM 0 | PDGFRB; 10 µM 0 | PDK1; 10 µM 0 | PDPK1; 10 µM 0 | PIK4CA; 10 µM 0 | PIK4CB; 10 µM 0 | PLK1; 10 µM 0 | PRKAA1; 10 µM 0 | PRKCA; 10 µM 0 | PTK2; 10 µM 0 | PTK2B; 10 µM 0 | RAF1; 10 µM 0 | [1]; 10 µM 0

COc1cc2c(Oc3ccc4[nH]c(C)cc4c3F)ncnc2cc1OCCCN1CCCC1 [Cediranib]
inactive: MAPK1; 2.5 µM 0 | MAPK4; 2.5 µM 0 | MAPKAPK2; 2.5 µM 0 | MKNK1; 2.5 µM 0 | NTRK2; 2.5 µM 0 | NTRK3; 2.5 µM 0 | PAK4; 2.5 µM 0 | PBK; 2.5 µM 0 | PDGFRB; 2.5 µM 0 | PDK1; 2.5 µM 0 | PDPK1; 2.5 µM 0 | PIK4CA; 2.5 µM 0 | PIK4CB; 2.5 µM 0 | PLK1; 2.5 µM 0 | PRKAA1; 2.5 µM 0 | PRKCA; 2.5 µM 0 | PTK2; 2.5 µM 0 | PTK2B; 2.5 µM 0 | RAF1; 2.5 µM 0 | [1]; 2.5 µM 0

CNc1ncc2cc(-c3ccc(-c4cccc(C)n4)cc3Cl)c(=O)n(C[C@H]3OC[C@H](N)CO3)c2n1 [G-5555 (hydrochloride)]
inactive: MAPK1; 10 µM 0 | MAPK4; 10 µM 0 | MAPKAPK2; 10 µM 0 | MKNK1; 10 µM 0 | NTRK2; 10 µM 0 | NTRK3; 10 µM 0 | PAK4; 10 µM 0 | PBK; 10 µM 0 | PDGFRB; 10 µM 0 | PDK1; 10 µM 0 | PDPK1; 10 µM 0 | PIK4CA; 10 µM 0 | PIK4CB; 10 µM 0 | PLK1; 10 µM 0 | PRKAA1; 10 µM 0 | PRKCA; 10 µM 0 | PTK2; 10 µM 0 | PTK2B; 10 µM 0 | RAF1; 10 µM 0 | [1]; 10 µM 0

Later entries:

COC(=O)[C@H](CC(C)C)NC(=O)c1ccc(NC[C@@H](N)CS)cc1-c1cccc2ccccc12 [GGTI298 (Trifluoroacetate)]
inactive: MAPK1; 10 µM 0 | MAPK4; 10 µM 0 | MAPKAPK2; 10 µM 0 | MKNK1; 10 µM 0 | NTRK2; 10 µM 0 | NTRK3; 10 µM 0 | PAK4; 10 µM 0 | PBK; 10 µM 0 | PDGFRB; 10 µM 0 | PDK1; 10 µM 0 | PDPK1; 10 µM 0 | PIK4CA; 10 µM 0 | PIK4CB; 10 µM 0 | PLK1; 10 µM 0 | PRKAA1; 10 µM 0 | PRKCA; 10 µM 0 | PTK2; 10 µM 0 | PTK2B; 10 µM 0 | RAF1; 10 µM 0 | [1]; 10 µM 0

C=CC(=O)Nc1cc(Nc2nccc(-c3cn(C4CC4)c4ccccc34)n2)c(OC)cc1N(C)CCN(C)C [Almonertinib]
inactive: MAPK1; 2.5 µM 0 | MAPK4; 2.5 µM 0 | MAPKAPK2; 2.5 µM 0 | MKNK1; 2.5 µM 0 | NTRK2; 2.5 µM 0 | NTRK3; 2.5 µM 0 | PAK4; 2.5 µM 0 | PBK; 2.5 µM 0 | PDGFRB; 2.5 µM 0 | PDK1; 2.5 µM 0 | PDPK1; 2.5 µM 0 | PIK4CA; 2.5 µM 0 | PIK4CB; 2.5 µM 0 | PLK1; 2.5 µM 0 | PRKAA1; 2.5 µM 0 | PRKCA; 2.5 µM 0 | PTK2; 2.5 µM 0 | PTK2B; 2.5 µM 0 | RAF1; 2.5 µM 0 | [1]; 2.5 µM 0

c1cc(-c2cnn3cc(-c4ccc(OCCN5CCCCC5)cc4)cnc23)ccn1 [Dorsomorphin (dihydrochloride)]
inactive: MAPK1; 2.5 µM 0 | MAPK4; 2.5 µM 0 | MAPKAPK2; 2.5 µM 0 | MKNK1; 2.5 µM 0 | NTRK2; 2.5 µM 0 | NTRK3; 2.5 µM 0 | PAK4; 2.5 µM 0 | PBK; 2.5 µM 0 | PDGFRB; 2.5 µM 0 | PDK1; 2.5 µM 0 | PDPK1; 2.5 µM 0 | PIK4CA; 2.5 µM 0 | PIK4CB; 2.5 µM 0 | PLK1; 2.5 µM 0 | PRKAA1; 2.5 µM 0 | PRKCA; 2.5 µM 0 | PTK2; 2.5 µM 0 | PTK2B; 2.5 µM 0 | RAF1; 2.5 µM 0 | [1]; 2.5 µM 0
